# Assay results reported in patent US20260085091A1, “PEPTIDES THAT SELECTIVELY BIND TO Trop2 AND USE THEREOF” (KYUNGPOOK NATIONAL UNIVERSITY INDUSTRY-ACADEMIC COOPERATION …, priority 2022, published 2026).
# Protein sequences, listed by entry. Tags and fused reporters are not part of them. Lines headed by an entry give the natural chain unless they say otherwise; changes in a name come on top. Residues count along the entry.
# UniProt P09758: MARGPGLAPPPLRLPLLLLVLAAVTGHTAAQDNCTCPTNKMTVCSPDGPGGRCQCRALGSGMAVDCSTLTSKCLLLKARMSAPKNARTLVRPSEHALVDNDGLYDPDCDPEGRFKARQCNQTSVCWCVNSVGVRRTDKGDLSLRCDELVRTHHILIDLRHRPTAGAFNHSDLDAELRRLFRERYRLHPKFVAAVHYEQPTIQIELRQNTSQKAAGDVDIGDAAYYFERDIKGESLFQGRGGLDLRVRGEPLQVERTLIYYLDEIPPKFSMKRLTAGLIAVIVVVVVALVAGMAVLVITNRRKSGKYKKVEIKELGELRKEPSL
# human Trop2 linked with green fluorescence protein (GFP), expressed in transfected HEK293T cells: residues 27-323 of P09758
# human recombinant Trop2 protein: residues 27-274 of P09758
# Results are given in words; binding and its absence hold for the method and conditions named. For some of these results: Binding seen in cells or lysates may run through a third protein. Some results given as binding are weak or reduced against the parent protein; the word gives no strength.
# How the values were obtained:
# [1] = target: Trop2 (trophoblast antigen 2) expressed on human tumor cell lines (human) (UniProt P09758); assay: phage cell ELISA, anti-T7 antibody detection
# [2] = target: human recombinant Trop2 protein (human) (UniProt P09758); assay: ELISA, rTrop2 coated, biotin-peptide detected with streptavidin-HRP
# [3] = target: human Trop2 linked with green fluorescence protein (GFP), expressed in transfected HEK293T cells (human) (UniProt P09758); assay: pull-down from lysates of Trop2-overexpressing HEK293T cells, anti-Trop2 western blot
# [4] = target: human Trop2 linked with green fluorescence protein (GFP), expressed in transfected HEK293T cells (human) (UniProt P09758); assay: pull-down competition; competitor of the biotin-labeled … peptide for Trop2 in cell lysates
binder,measurement,setting,value
"CSTLNVESC (peptide, not shown: large carriers) [phage clone expressing … (SEQ ID NO: 1) peptide]",binding,[1],binds
CSTLNVESC (biotin conjugated at the N-terminal) [N-terminal biotin-linked … (SEQ ID NO: 1) peptide],binding,[2],binds
same,binding,[3],binds
CSTLNVESC [unlabeled … (SEQ ID NO: 1) peptide],binding,[4],binds
